# Measurements published in paper PMC12858073.
# Amino acid sequences for entries named in this document (tags omitted).
# UniProt P29341: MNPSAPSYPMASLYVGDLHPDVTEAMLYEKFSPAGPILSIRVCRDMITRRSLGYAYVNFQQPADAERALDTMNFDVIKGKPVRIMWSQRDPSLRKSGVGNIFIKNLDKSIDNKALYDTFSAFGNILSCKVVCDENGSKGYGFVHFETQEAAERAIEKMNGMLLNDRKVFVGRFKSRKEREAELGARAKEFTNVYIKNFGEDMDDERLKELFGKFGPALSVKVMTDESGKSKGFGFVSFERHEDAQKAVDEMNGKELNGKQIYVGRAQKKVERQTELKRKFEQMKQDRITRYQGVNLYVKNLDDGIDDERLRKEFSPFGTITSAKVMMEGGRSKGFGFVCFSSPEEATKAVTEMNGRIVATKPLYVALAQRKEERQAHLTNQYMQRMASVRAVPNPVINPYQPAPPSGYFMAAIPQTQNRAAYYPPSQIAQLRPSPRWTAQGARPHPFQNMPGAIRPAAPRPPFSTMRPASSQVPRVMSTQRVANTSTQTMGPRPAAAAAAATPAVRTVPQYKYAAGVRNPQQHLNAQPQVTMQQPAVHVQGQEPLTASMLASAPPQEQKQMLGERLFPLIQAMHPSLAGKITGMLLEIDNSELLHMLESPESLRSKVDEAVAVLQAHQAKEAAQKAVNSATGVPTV
# UniProt Q921F2: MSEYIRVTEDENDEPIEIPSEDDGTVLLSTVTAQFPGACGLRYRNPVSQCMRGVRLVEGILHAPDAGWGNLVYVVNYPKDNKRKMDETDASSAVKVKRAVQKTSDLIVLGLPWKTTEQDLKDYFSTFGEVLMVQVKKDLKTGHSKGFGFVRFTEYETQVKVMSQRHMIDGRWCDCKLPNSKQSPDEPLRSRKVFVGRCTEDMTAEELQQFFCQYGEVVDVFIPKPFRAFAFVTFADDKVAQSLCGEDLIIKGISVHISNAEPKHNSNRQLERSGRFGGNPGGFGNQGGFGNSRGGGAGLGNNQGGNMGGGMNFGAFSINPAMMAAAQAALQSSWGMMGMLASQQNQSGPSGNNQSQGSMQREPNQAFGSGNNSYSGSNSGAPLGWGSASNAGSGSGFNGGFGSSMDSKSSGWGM
# T1: Ala10 PABPN1-TurboID (UniProt Q8CCS6)
# T1 sequence: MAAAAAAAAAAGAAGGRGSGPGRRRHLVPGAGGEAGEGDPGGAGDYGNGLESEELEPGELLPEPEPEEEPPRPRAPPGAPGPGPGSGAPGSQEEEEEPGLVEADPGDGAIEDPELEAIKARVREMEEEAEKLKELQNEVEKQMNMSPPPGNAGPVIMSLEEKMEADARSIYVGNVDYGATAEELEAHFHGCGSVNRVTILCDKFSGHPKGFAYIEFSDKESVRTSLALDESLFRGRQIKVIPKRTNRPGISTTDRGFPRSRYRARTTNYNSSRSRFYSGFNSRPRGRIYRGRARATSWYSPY
# T2: Ala17 PABPN1-TurboID (UniProt Q8CCS6)
# T2 sequence: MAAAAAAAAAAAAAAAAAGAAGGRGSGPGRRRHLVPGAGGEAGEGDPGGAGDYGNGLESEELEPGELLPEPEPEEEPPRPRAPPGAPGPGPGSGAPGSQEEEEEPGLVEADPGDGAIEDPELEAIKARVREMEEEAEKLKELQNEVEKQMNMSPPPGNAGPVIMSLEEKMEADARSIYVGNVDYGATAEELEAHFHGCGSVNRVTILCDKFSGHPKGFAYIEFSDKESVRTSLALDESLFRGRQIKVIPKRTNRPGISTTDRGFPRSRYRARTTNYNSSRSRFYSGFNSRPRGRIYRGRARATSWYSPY
# Key:
# Ala10 PABPN1-TurboID [1] = target: T1, Ala10 PABPN1-TurboID; test: proximity labelling; PABPN1-TurboID at near-native levels in C2C12 myotubes (doxycycline, biotin); streptavidin capture; label-free quantitative nanoLC-MS/MS against the Mus musculus database; three experiments; strict hits in at least two of three replicates and not in wild type controls
# Ala17 PABPN1-TurboID [2] = target: T2, Ala17 PABPN1-TurboID; test: as above
# Ala10 PABPN1-TurboID [3] = target: T1, Ala10 PABPN1-TurboID; test: proximity labelling; PABPN1-TurboID in C2C12 myotubes (doxycycline ~48 h, 1 mM biotin 2 h); lysate in RIPA with 1% SDS; capture on streptavidin agarose beads overnight at 4 C; eluates analysed by immunoblot with specific antibodies
# Ala17 PABPN1-TurboID [4] = target: T2, Ala17 PABPN1-TurboID; test: as above
# Ala10 PABPN1-TurboID [5] = target: T1, Ala10 PABPN1-TurboID; test: as above; remark: listed apart in the source
# Ala17 PABPN1-TurboID [6] = target: T2, Ala17 PABPN1-TurboID; test: as above; remark: listed apart in the source
Molecule,binding (Ala10 PABPN1-TurboID [1]),binding (Ala17 PABPN1-TurboID [2]),binding (Ala10 PABPN1-TurboID [3]),binding (Ala17 PABPN1-TurboID [4]),binding (Ala10 PABPN1-TurboID [5]),binding (Ala17 PABPN1-TurboID [6])
PABPC1 (from UniProt P29341 1-636),binds,binds,binds,binds,,
TDP-43 (from UniProt Q921F2 1-414),binds,binds,binds,binds,,
"STEAP3 (protein, UniProt Q8CI59 1-488) MSGEMDKPLISRRLVDSDGSLAEVPKEAPKVGILGSGDFARSLATRLVGSGFSVVVGSRNPKRTAGLFPSLAQVTFQEEAVSSPEVIFVAVFREHYSSLCSLADQLAGKILVDVSNPTEKEHLQHRQSNAEYLASLFPACTVVKAFNVISAWALQAGPRDGNRQVLICSDQPEAKRTISEMARAMGFTPLDMGSLASAREVEAIPLRLLPSWKVPTLLALGLFVCFYTYNFIRDVLQPYIRKDENKFYKMPLSVVNTTLPCVAYVLLSLVYLPGVLAAALQLRRGTKYQRFPDWLDHWLQHRKQIGLLSFFFAMLHALYSFCLPLRRSHRYDLVNLAVKQVLANKSRLWVEEEVWRMEIYLSLGVLALGMLSLLAVTSLPSIANSLNWKEFSFVQSTLGFVALILSTMHTLTYGWTRAFEENHYKFYLPPTFTLTLLLPCVIILAKGLFLLPCLSRRLTKIRRGWEKDGAVKFMLPGDHTQGEKTSHV",binds,binds,,,,
"CPSF6 (protein, UniProt Q6NVF9 1-551) MADGVDHIDIYADVGEEFNQEAEYGGHDQIDLYDDVISPSANNGDAPEDRDYMDTLPPTVGDDVGKGAAPNVVYTYTGKRIALYIGNLTWWTTDEDLTEAVHSLGVNDILEIKFFENRANGQSKGFALVGVGSEASSKKLMDLLPKRELHGQSPVVTPCNKQFLSQFEMQSRKTTQSGQMSGEGKAGPPGGGSRAAFPQGGRGRGRFPGAVPGGDRFPGPAGPGGPPPPFPAGQTPPRPPLGPPGPPGPPGPPPPGQVLPPPLAGPPNRGDRPPPPVLFPGQPFGQPPLGPLPPGPPPPVPGYGPPPGPPPPQQGPPPPPGPFPPRPPGPLGPPLTLAPPPHLPGPPPGAPPPAPHVNPAFFPPPTNSGMPTSDSRGPPPTDPYGRPPPYDRGDYGPPGREMDTARTPLSEAEFEEIMNRNRAISSSAISRAVSDASAGDYGSAIETLVTAISLIKQSKVSADDRCKVLISSLQDCLHGIESKSYGSGSRRERSRERDHSRSREKSRRHKSRSRDRHDDYYRERSRERERHRDRDRDRDRERDREREYRHR",binds,binds,,,,
"RBM27 (protein, UniProt Q5SFM8 1-1060) MLIEDVDALKSWLAKLLEPICDADPSALANYVVALVKKDKPEKELKAFCADQLDVFLQKETSGFVDKLFESLYTKNYLPPLEPVKPEPKPLVQEKEEIKEEVFQEPAEEERDTRKKKYPSPQKSRSESSERRTREKKREDGKWRDYERYYERNELYREKYDWRRGRSKSRSKSRGLSRSRSRSRGRSKDRDPNRNVEHRERSKFKSERNDLESSYVPVSAPPPSSSEQYSSGAQSIPSTVTVIAPAHHSENTTESWSNYYNNHSSSNSFGRNPPPKRRCRDYDERGFCVLGDLCQFDHGNDPLVVDEVALPSMIPFPPPPPGLPPPPPPGMLMPPMPGPGPGPGPGPGPGPGPGPGPGHSMRLPVPQGHGQPPPSVVLPIPRPPISQSSLINSRDQPGTSAVPNLAPVGARLPPPLPQNLLYTVSERQPMYSREHGAAASERLQLGTPPPLLAARLVPPRNLMGSSIGYHTSVSSPTPLVPDTYEPDGYNPEAPSITSSGRSQYRQFFSRAQTQRPNLIGLTSGDMDANPRAANIVIQTEPPVPVSVNSNVTRVVLEPESRKRAISGLEGPLTKKPWLGKQGNNNQSKPGFLRKNHYTNTKLEVKKIPQELNNITKLNEHFSKFGTIVNIQVAFKGDPEAALIQYLTNEEARKAISSTEAVLNNRFIRVLWHRENNEQPALQSSAQILLQQQHTLSHLSQQHHSLPQHLHPQQVMVTQSSPSSVHGGIQKMMGKPQTSGAYVLNKVPVKHRLGHASTNQSDTSHLLNQTGGSSGEDCPVFSTPGHPKTIYSSSNLKAPSKLCSGSKSHDVQEVLKKKQEAMKLQQDMRKKKQEMLEKQIECQKMLISKLEKNKNMKPEERANIMKTLKELGEKISQLKDELKTSSTVSTPSKVKTKTEAQKELLDTELDLHKRLSSGEDTTELRKKLSQLQVEAARLGILPVGRGKTISSQGRGRGRGRGRGRGSLNHMVVDHRPKALPGGGFIEEEKDELLQHFSATNQASKFKDRRLQISWHKPKVPSISTETEEEEVKEEETETSDLFLHDDDDEDEDEYESRSWRR",binds,binds,,,,
"THOC5 (protein, UniProt Q8BKT7 1-683) MSSESSKKRKPKVIRSDGTPTEGKRNRSDTEQEGKYYSEEAEVDLRDPGRDYELYKYTCQELQRLMAEIQDLKSKGSKDVAIEIEERRIQSCVHFMTLKKLNRLAHIRLKKGRDQTHEAKQKVDAYHLQLQNLLYEVMHLQKEITKCLEFKSKHEEIDLVSLEEFYSEAPPSISKAEITMGDPHQQTLARLDWELEQRKRLAEKYRECLSNKEKILKEIEVKRDYLSSLQPRLNSIMQASLPVQEYLFMPFDQAHKQYETARHLPPPLYVLFVQATAYGQACDKTLSVAIEGSVDEAKALFKPPEDSQDDESDSDAEEEQTTKRRRPTLGVQLDDKRKEMLKRHPLSVLLDLKCKDNSVLHLTFYYLMNLNIMTVKAKVTTAVELITPISAGDLLSPDSVLSCLYPGDHGKKTPNPANQYQFDKVGILTLRDYVLELGHPYLWVQKLGGLHFPKEQPQQTVMPDHSQSASHMETTMKLLKTRVQSRLALHKQFASLEHGIVPVTSDCQDLFPAKVVSRLVKWVIITHEDYMELHFTKDIVEAGLAGDTNLYYLALIERGTAKLQAAVVLNPGYSSIPPVFRLCLNWKGEKTNSNDDNIRAMESEVNVCYKELCGPRPSHQLLTNQLQRLCVLLDVYLETESHDDSFEGPKEFPQEKMCLRLFRGPSRMKPFKYNHPQGFFSHR",,,,,binds,binds

# Results are given in words; binding and its absence hold for the method and conditions named. Binding seen in cells or lysates may run through a third protein. A yes stands for co-enrichment or nearness to the bait. Other partners may have been found.
